Some of the results follow.
Compound: COc1ccc(Cn2ccc3ccc(C(=O)NO)cc32)cc1
Assay: dose-dependent thermal stabilisation call (2D-TPP, DLPTP, 10% FDR) (binary (1 = stabilised)); higher = stabilised by the compound
Conditions: system: HL-60 intact cells; concentration range 0.04-10 µM

The chains behind the UniProt entries cited, without tags or fusion partners. Where a name states a change or a piece, a line headed by the entry shows the natural chain unless it says otherwise.
UniProt Q9Y673: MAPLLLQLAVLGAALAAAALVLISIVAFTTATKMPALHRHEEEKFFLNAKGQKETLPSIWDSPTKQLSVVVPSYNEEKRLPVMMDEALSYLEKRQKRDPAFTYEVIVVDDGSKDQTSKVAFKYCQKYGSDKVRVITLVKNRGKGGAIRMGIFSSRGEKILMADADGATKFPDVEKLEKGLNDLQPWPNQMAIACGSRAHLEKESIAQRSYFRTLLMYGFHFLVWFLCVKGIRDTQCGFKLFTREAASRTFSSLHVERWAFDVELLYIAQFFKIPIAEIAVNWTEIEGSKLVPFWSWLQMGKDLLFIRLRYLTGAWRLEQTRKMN
UniProt Q92667: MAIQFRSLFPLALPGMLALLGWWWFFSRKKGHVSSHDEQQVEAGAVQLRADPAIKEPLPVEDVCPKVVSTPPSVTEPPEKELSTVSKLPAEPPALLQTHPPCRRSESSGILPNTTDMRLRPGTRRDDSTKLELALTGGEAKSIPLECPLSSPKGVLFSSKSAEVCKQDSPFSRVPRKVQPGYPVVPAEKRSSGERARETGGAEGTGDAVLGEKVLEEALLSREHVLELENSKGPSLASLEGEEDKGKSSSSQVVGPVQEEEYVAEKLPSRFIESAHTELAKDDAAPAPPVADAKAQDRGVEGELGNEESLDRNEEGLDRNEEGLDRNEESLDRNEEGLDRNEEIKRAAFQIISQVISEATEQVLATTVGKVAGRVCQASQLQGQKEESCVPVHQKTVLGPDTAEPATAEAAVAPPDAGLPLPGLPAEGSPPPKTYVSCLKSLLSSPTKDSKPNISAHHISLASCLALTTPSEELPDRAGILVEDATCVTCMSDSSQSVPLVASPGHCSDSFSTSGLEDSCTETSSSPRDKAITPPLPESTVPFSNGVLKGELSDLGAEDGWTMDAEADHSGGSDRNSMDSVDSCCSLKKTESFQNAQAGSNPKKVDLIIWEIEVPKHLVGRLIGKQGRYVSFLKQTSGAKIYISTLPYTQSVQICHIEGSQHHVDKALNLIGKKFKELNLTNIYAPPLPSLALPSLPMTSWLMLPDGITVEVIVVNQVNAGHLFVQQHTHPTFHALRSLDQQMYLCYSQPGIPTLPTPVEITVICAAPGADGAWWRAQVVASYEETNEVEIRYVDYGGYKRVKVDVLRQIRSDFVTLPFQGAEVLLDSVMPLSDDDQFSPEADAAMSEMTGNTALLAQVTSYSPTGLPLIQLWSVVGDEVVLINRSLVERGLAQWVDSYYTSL
UniProt Q9NRW3: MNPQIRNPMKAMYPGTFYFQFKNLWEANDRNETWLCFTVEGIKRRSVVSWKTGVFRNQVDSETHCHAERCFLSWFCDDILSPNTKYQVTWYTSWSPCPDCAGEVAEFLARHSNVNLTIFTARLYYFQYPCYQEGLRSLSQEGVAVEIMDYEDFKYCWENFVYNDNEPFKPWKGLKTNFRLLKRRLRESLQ
UniProt Q9BXS5: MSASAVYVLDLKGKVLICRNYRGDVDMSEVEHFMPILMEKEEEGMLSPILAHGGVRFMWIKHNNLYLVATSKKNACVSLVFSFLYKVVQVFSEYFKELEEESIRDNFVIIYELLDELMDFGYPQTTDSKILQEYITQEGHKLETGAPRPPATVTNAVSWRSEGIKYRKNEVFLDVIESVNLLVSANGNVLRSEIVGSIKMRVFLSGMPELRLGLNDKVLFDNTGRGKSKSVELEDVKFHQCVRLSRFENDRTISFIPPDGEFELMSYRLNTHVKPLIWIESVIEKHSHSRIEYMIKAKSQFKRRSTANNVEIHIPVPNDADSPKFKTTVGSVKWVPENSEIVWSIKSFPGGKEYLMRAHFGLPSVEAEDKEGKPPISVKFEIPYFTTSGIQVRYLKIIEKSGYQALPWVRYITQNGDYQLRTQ
UniProt Q6RW13: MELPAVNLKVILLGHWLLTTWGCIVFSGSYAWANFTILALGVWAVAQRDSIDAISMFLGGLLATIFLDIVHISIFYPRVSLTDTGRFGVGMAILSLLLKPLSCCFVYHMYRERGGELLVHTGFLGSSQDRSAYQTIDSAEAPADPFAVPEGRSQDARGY
UniProt Q9BWD1: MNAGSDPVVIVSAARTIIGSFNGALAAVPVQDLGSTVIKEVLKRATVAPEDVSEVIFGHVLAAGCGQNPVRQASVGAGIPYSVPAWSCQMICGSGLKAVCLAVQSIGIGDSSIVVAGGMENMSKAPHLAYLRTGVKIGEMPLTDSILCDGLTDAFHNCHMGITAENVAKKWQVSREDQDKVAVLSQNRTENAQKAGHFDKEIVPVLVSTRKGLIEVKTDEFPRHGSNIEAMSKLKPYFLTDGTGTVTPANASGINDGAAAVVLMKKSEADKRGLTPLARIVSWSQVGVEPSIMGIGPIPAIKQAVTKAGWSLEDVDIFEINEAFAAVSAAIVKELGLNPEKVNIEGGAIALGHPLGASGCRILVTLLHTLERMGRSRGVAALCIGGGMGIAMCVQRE
UniProt Q5BKT4: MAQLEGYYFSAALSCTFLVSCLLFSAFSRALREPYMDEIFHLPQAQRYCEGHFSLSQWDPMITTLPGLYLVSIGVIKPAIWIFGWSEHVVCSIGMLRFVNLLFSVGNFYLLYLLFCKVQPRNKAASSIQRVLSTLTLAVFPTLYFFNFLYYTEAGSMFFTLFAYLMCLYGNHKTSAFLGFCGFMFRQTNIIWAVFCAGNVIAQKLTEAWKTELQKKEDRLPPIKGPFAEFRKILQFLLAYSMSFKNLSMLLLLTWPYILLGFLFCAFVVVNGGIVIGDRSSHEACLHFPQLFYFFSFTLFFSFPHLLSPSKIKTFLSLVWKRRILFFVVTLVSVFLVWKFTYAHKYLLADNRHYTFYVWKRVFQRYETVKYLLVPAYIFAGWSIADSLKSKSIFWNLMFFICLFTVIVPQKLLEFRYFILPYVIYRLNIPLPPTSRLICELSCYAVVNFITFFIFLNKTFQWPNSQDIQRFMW
UniProt Q96BJ3: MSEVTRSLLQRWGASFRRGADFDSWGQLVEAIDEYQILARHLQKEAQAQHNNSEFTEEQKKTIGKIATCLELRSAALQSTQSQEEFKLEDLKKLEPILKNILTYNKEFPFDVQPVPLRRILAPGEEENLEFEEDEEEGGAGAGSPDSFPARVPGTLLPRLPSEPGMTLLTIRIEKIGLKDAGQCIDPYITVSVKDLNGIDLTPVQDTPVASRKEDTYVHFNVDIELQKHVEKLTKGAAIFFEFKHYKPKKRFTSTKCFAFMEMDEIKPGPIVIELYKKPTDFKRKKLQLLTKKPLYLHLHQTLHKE
UniProt O43747: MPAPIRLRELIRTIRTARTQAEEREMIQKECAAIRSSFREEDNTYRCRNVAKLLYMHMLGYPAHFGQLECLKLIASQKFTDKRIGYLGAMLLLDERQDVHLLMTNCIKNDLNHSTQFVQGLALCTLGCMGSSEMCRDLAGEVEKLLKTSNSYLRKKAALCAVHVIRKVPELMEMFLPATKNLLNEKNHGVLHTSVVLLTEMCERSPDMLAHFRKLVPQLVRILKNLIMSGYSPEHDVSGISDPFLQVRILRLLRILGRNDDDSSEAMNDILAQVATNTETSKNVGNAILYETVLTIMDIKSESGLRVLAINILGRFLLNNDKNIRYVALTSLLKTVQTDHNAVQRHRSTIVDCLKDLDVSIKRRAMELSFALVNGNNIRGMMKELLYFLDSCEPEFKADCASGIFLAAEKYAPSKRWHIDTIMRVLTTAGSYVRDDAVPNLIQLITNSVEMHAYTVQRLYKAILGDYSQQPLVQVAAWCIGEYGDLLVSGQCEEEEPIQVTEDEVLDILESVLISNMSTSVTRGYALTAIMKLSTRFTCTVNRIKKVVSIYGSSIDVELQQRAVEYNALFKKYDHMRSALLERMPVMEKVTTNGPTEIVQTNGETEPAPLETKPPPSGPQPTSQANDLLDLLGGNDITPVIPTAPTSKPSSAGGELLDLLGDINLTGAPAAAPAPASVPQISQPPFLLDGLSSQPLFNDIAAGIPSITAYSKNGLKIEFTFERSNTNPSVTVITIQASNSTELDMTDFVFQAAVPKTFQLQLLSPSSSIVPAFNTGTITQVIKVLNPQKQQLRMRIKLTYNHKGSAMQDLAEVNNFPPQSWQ
UniProt Q9H6X2: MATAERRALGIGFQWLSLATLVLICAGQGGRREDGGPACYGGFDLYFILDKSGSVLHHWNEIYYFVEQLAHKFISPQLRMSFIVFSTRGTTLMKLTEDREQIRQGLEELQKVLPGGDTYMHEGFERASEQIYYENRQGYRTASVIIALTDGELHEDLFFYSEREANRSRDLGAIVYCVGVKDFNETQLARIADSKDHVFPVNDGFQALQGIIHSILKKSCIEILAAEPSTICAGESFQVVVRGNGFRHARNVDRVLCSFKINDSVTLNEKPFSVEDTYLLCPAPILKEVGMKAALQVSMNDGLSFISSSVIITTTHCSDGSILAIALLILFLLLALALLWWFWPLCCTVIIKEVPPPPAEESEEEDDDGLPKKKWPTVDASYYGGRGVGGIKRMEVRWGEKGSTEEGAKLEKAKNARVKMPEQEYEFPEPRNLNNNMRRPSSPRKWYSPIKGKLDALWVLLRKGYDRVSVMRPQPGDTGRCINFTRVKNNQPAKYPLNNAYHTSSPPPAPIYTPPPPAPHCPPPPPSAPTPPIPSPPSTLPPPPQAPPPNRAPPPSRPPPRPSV
UniProt Q02252: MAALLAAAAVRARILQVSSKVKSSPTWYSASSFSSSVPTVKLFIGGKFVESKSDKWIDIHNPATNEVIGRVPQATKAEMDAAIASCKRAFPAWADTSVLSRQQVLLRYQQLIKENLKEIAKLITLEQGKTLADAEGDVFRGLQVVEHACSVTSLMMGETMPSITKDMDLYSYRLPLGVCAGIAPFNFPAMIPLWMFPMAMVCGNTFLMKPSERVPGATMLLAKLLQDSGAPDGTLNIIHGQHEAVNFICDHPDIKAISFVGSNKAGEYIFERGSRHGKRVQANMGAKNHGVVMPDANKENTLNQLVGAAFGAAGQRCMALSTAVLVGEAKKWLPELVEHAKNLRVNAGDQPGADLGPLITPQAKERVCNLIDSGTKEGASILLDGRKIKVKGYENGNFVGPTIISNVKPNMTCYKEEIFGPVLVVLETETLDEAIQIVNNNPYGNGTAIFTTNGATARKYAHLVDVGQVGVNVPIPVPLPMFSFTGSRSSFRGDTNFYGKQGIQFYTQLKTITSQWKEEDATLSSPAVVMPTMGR
UniProt Q9H981, whole entry: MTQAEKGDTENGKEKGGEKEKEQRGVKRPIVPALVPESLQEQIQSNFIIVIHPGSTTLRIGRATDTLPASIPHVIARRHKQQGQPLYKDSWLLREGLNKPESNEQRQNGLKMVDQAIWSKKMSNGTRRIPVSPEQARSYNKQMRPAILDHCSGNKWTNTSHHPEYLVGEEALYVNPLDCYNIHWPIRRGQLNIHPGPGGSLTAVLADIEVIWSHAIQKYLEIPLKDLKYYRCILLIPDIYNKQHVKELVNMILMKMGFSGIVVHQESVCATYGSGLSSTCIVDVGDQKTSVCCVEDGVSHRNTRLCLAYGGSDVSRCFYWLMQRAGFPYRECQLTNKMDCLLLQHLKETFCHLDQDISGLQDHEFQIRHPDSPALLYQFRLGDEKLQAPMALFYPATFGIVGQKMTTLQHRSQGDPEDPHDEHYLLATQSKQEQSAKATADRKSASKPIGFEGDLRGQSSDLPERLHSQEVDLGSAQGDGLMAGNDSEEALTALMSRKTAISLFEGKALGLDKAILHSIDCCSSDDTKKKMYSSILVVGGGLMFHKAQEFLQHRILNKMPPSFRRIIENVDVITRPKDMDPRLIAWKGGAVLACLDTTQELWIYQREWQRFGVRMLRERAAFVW
UniProt P20292: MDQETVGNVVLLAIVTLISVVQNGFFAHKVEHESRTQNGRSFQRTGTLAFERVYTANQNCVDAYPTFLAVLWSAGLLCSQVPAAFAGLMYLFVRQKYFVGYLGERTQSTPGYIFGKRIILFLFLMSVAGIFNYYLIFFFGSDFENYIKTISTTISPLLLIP
UniProt O00170: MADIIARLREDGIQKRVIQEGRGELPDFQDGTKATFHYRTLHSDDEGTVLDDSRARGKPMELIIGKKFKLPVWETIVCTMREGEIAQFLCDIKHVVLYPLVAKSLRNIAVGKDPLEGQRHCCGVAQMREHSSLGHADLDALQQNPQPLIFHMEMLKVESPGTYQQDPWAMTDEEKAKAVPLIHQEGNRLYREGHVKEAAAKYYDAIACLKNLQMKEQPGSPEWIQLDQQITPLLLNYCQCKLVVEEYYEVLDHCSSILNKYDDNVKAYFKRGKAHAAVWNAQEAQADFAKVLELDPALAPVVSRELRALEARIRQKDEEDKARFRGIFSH

Target | dose-dependent thermal stabilisation call
APC (UniProt P25054) | inactive: 0
APH1A (UniProt Q96BI3) | inactive: 0
AGPAT2 (UniProt O15120) | inactive: 0
ALG5 (UniProt Q9Y673) | inactive: 0
AP3M1 (UniProt Q9Y2T2) | inactive: 0
AKAP1 (UniProt Q92667) | inactive: 0
APOBEC3C (UniProt Q9NRW3) | inactive: 0
AP1M1 (UniProt Q9BXS5) | inactive: 0
AKAP8 (UniProt O43823) | inactive: 0
AGTRAP (UniProt Q6RW13) | inactive: 0
ACAT2 (UniProt Q9BWD1) | inactive: 0
AP1S3 (UniProt Q96PC3) | inactive: 0
ARHGEF7 (UniProt Q14155) | inactive: 0
AKR7A2 (UniProt O43488) | inactive: 0
ANP32E (UniProt Q9BTT0) | inactive: 0
ALG10 (UniProt Q5BKT4) | inactive: 0
AIDA (UniProt Q96BJ3) | inactive: 0
AP1G1 (UniProt O43747) | inactive: 0
ANTXR1 (UniProt Q9H6X2) | inactive: 0

A section taken from the entries so far, as a working copy:
Target | dose-dependent thermal stabilisation call
ANP32E (UniProt Q9BTT0) | inactive: 0
ALG10 (UniProt Q5BKT4) | inactive: 0

More records follow:

Target | dose-dependent thermal stabilisation call
ALG13 (UniProt Q9NP73) | inactive: 0
APOBEC3B (UniProt Q9UH17) | inactive: 0
AGA (UniProt P20933) | inactive: 0
APLP2 (UniProt Q06481) | inactive: 0
ALS2 (UniProt Q96Q42) | inactive: 0
ALDH6A1 (UniProt Q02252) | inactive: 0
ACSS1 (UniProt Q9NUB1) | inactive: 0
ACTR8 (UniProt Q9H981) | inactive: 0
ALOX5AP (UniProt P20292) | active: 1
ALMS1 (UniProt Q8TCU4) | inactive: 0
AKT1S1 (UniProt Q96B36) | inactive: 0
APOA1BP (UniProt Q8NCW5) | inactive: 0
AP4S1 (UniProt Q9Y587) | inactive: 0
AGAP3 (UniProt Q96P47) | inactive: 0
AIP (UniProt O00170) | inactive: 0
ARIH2 (UniProt O95376) | inactive: 0
ANGEL2 (UniProt Q5VTE6) | inactive: 0
ACCN2 (UniProt P78348) | inactive: 0

Reference: the supplement of paper PMC7666118
